Reference: PMC6053418

Chains of the proteins cited; added tags and fusions are not shown. Chains listed by the source or under a name are the forms on record and can include a tag or linker.
CST (CTC1-STN1-TEN1) (Homo sapiens), one chain, as listed by the source, chain 3 of 3: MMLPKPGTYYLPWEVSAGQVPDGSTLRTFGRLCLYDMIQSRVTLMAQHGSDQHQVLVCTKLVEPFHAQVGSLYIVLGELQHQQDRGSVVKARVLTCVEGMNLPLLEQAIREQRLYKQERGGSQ
CS (CTC1-STN1) (Homo sapiens), one chain, as listed by the source, chain 1 of 2: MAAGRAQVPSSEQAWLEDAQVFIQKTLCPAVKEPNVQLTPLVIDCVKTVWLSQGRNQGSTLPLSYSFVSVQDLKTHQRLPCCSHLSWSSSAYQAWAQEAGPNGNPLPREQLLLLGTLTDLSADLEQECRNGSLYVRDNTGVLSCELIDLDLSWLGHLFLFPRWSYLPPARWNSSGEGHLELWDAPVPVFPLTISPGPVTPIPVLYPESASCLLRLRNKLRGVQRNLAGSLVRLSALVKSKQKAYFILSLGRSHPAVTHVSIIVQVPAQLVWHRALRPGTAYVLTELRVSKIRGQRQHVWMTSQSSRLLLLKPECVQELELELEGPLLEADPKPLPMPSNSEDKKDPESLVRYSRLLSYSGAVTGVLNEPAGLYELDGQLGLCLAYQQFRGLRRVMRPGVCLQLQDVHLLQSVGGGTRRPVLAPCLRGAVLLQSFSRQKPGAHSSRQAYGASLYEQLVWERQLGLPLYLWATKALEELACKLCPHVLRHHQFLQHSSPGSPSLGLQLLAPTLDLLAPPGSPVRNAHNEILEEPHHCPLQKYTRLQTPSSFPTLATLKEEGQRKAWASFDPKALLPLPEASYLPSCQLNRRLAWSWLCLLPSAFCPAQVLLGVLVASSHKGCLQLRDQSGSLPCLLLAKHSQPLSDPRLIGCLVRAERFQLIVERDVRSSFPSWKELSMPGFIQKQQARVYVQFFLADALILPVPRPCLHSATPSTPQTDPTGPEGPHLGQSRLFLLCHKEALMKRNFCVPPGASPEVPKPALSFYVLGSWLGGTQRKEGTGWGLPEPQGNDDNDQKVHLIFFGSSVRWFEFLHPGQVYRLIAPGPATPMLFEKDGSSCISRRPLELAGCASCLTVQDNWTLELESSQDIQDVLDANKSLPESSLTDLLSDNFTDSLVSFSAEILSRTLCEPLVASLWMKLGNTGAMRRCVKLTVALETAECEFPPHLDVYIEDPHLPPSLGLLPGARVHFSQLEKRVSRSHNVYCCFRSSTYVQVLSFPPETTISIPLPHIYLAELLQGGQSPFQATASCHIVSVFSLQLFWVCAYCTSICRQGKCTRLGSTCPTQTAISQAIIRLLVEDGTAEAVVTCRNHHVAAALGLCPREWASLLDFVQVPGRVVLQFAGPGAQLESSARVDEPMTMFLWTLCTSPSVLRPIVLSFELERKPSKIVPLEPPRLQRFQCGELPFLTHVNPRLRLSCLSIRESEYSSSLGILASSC
CS (CTC1-STN1) (Homo sapiens), one chain, as listed by the source, chain 2 of 2: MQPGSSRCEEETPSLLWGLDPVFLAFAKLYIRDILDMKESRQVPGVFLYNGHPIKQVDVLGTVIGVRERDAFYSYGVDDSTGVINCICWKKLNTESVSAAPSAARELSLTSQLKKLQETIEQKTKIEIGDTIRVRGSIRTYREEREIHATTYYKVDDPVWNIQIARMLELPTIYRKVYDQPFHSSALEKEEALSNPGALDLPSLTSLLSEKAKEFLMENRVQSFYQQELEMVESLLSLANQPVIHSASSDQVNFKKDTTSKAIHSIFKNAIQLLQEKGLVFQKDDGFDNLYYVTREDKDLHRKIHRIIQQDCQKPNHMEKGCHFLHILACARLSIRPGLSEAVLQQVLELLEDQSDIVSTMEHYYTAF

Tests used:
Assay in all cases: EMSA
[1] = tested on: CS (CTC1-STN1) (Homo sapiens); conditions: EMSA: 25 mM Tris-HCl pH 8.0, 100 mM NaCl, 1 mM DTT, 0.1 nM DNA, 30 min RT (Kd(app): 0.01 nM DNA, 18 h, 4 °C), recombinant protein, protein details: FLAG-CTC1, FLAG-STN1, label: 32P, single-stranded DNA
[2] = tested on: CST (CTC1-STN1-TEN1) (Homo sapiens); conditions: affinity very low; EMSA: 25 mM Tris-HCl pH 8.0, 100 mM NaCl, 1 mM DTT; 0.1 nM DNA, 30 min RT (Kd(app): 0.01 nM DNA, 18 h, 4 °C); recombinant protein; protein details: FLAG-CTC1, FLAG-STN1, untagged TEN1; label: 32P; single-stranded DNA
[3] = tested on: ST (STN1-TEN1) (Homo sapiens); conditions: 0.1 nM DNA, EMSA: 25 mM Tris-HCl pH 8.0, 100 mM NaCl, 1 mM DTT, 30 min RT (Kd(app): 0.01 nM DNA, 18 h, 4 °C), recombinant protein, protein details: FLAG-STN1, untagged TEN1, label: 32P, single-stranded DNA

| Sequence | binding result ([1]; affinity very low) | binding result [2] | binding result ([1]; binds very poorly) | binding result [3] |
| --- | --- | --- | --- | --- |
| TTAGGGTTAG [Tel10] | binds more weakly | binds more weakly | – | – |
| GCGTACTCAGTGACTCAGATCGAC [NonTel-26] | – | – | binds more weakly | – |
| AGCGTATCCGTTCAGTTG [NonTel-18] | binds more weakly | binds more weakly | – | – |
| AGCGTATCCGTTCAGTTGAGCGTATCCGTTCAGTTGAGCGTATCCGTT [NonTel-48] | – | – | – | binds more weakly |
| GGTTAGGGTTAGGGTTAGGGTTAGGGTTAGGGTTAG [Tel-36] | – | – | – | binds more weakly |

The exact form of at least one protein or probe is not confirmed. The comparison behind a weaker result is the experiment's own reference, which may not be listed here. At least one verdict rests on a figure or table, not on a statement of the authors.
